Measurements from “University of Dundee, Small-Polar-MMV Screening Library” (2021), ChEMBL document CHEMBL3988442.

Chains of the proteins cited; added tags and fusions are not shown. Residues count along the entry.
UniProt A4I591, 1-473: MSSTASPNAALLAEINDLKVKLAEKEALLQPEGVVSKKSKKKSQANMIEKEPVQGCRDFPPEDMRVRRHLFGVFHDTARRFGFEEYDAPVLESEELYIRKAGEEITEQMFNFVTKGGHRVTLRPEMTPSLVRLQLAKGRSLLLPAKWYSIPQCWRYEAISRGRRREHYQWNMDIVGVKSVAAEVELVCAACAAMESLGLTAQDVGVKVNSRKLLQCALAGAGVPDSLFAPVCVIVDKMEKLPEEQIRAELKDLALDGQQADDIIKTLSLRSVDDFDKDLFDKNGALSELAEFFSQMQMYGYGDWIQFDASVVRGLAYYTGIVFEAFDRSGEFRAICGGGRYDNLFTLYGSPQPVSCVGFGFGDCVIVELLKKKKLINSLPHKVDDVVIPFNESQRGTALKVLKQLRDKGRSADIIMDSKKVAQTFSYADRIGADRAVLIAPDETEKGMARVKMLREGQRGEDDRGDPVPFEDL

Results are given as percent effect. The record does not define 0% and 100%; most values in the screen are far below 50% and negative numbers occur (in some assays of this library far below -100). The compounds are a random part of those screened. A dash means the value is not listed here; it may have been measured.

A: 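Assay of Toxoplasma gondii numbers, read through their beta-galactosidase reporter with a colour substrate. Tested at 10 µM. Higher reads as fewer parasites (inferred from which compounds were picked for retests). Size under these conditions: about 67,000 compounds, about 260 of them at 50% or above in at least one test.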
B: 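Enzyme assay of histidyl-tRNA synthetase; the read-out is not stated. Target: Histidine-tRNA ligase, Leishmania infantum (UniProt A4I591). Compounds at 30 µM. Direction is inferred from retests: higher values go with stronger inhibition. The assay is labelled LdHisRS but filed under L. infantum. About 69,000 compounds were tested under these conditions; 0.6% (about 410) showed 50% or more at least once.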

compound,A,B
Cc1ccccc1CN(Cc1ccc(S(C)(=O)=O)cc1)CC(C)C,2.962,11.43
COc1nc2c(cc1C(=O)N1CC[C@H](CO)[C@@H](O)C1)CCC2,-9.212,14.89
CS(=O)(=O)N1Cc2nccn2CC(CN2CCCC2)C1 (stereo not given),4.713,22.37
Cc1nc2c(cc1C(=O)Nc1ccccc1Cl)c(=O)n(C)c(=O)n2C,-4.189,-44.26
CN1[C@@H](C(=O)NCC2CC2)C[C@@H]2CN(Cc3ccco3)C[C@@H]21,-,17.07
COc1ccc(C(C(=O)O)N(C)Cc2c(C)nn(C)c2C)c(C)c1 (stereo not given),19.33,9.574
Cc1occc1C(=O)N1CCO[C@H]2[C@H](OCc3cccnc3)CC[C@@H]21,-,2.857
CN(C)CCN1CC(C(=O)N2CCC(c3nccn3C)CC2)CC1=O (stereo not given),-4.333,15.25
CS(=O)(=O)N1CC2(CCN(C(=O)c3csnn3)CC2)c2ccccc21,5.806,15.38
O=C(c1ccc(C2CCCN2)s1)N1CC=CC1 (stereo not given),1.379,8.333
COCc1noc(-c2ccc(N(C)Cc3ccc(C)o3)nc2)n1,3.731,18.4
COc1cc(CNC(=O)NCCCF)cc(Br)c1OC,-2.203,2.913
N#CC1CCN(C(=O)CN2CC(c3ccccc3)CC2=O)CC1 (stereo not given),17.02,13.33
O=C(NCCN1CCCC1)Nc1cc(C(=O)N2CCOCC2)ccc1Cl,1.815,12.82
CCn1cc2c(n1)C(COC)CN(C(=O)COc1ccccc1)C2 (stereo not given),-9.368,6.195
COc1ccc(NC(=O)NCC(O)c2ccccc2F)c(OC)c1 (stereo not given),-0.6847,0
O=C(NCc1ccco1)N1CCCCC1c1nc(-c2ccncc2)no1 (stereo not given),-,23.91
COc1ccc(CNC2CCc3ncnn3C2)cc1OCCCC#N (stereo not given),-7.533,16.67
CC(C)CN1CCCC2(CCN(c3ccccn3)C2)C1.O=C(O)C(F)(F)F (stereo not given),1.148,-
Cc1nc(CN2CCc3ncnc(C4CCOC4)c3CC2)cs1 (stereo not given),-,16.67
O[C@H]1[C@H](n2cc(CN3CCCC3)nn2)c2ccccc2C12CCNCC2,9.777,15.15
O=C(O)c1cnc(N2CCCC2)nc1COc1ccc(F)cc1,10.21,16.85
O=S(=O)(CC1CCCCC1)NCc1ccc(O)nc1,-4.562,14.04
CC(Cc1ccco1)NC(=O)Nc1ccc(N(C)C)nc1 (stereo not given),-4.028,16.51
Fc1ccc(F)c(CN2CCC(c3n[nH]c4ncccc34)CC2)c1.O=C(O)CC(O)(CC(=O)O)C(=O)O,14.16,-
O=S(=O)(C1CC1)N1C[C@H]2CCC[C@@]2(COCc2ccccn2)C1,-,25.64
CN(C)C(=O)c1cccc(CN2CCN(CC(O)C(C)(C)C)CC2)c1 (stereo not given),12.41,10.91
CNC(=O)NC(=O)Cn1cc(-c2ccccc2)cn1,-4.556,8.108
CC(C)Oc1ccc(C(=O)N2CC[C@H](O)[C@@H](n3ccnc3)CC2)cc1,-7.668,20.62
O=C(c1ccccc1)C1CCN(C(=O)CC2COCCN2)CC1 (stereo not given),-1.723,9.333
CC(C)(C)n1nc(C(=O)NC2CCN(CC(N)=O)CC2)cc1C1CC1,23.78,15.22
Cc1n[nH]c(C)c1CNCC(O)c1ccc(F)c(F)c1 (stereo not given),3.698,4.464
Cc1cc(C(=O)N[C@H](C)c2onc(C)c2C(=O)O)c(C)o1,-,2.703
Cn1nc(CN2CCCN(C3CCCC3)CC2)c2c(Cl)cccc21,-11.81,18.18
CCc1cc(NCCNC(C)=O)nc(N2CCCC2)n1,0.2283,4.167
COCCC(=O)N1CCN(CC2CC2)c2nc(C)ccc2C1,-,-34
CC(NCc1cccc(C#N)c1)c1ccccn1 (stereo not given),-,13.7
COc1ccc(CN2Cc3[nH]nc(C(=O)N(C)C)c3C2)cc1,8.173,5.769
Cc1cc(C(=O)N2CCN(S(C)(=O)=O)[C@@H](C)C2)c(F)cc1F,-1.296,17.28
Cc1nc(C(NC(=O)CN(C)C(C)C)c2ccccc2F)no1 (stereo not given),1.803,1.961
CC(C)Nc1nc2c(c(N(C)C)n1)CCN(C(=O)c1cc[nH]n1)CC2,-9.41,12.82
Cc1noc(C)c1C(=O)N1CCC(Nc2cccnn2)CC1,-0.6103,60.55
COc1cccc(OC)c1CN1CCC2(CC(Nc3ccncn3)C2)C1 (stereo not given),-10.56,5.714
Cc1nonc1C1CCCN1Cc1ccc(C(=O)Nc2nccs2)cc1 (stereo not given),-6.832,19.28
CCN(Cc1nonc1C)C(=O)c1ccc(Br)o1,-1.469,8.824
COCCN1CCN(CC(C)(O)c2cccc(C(F)(F)F)c2)CC1 (stereo not given),-7.155,15.38
CN(C(=O)c1cccnc1OCC(F)F)c1ccc2c(c1)CCO2,1.441,7.018
O=C(O)C(F)(F)F.O=C(O)C(F)(F)F.[H][C@@]12CCCO[C@]1([H])[C@H](NC(=O)CC1CC1)CN(Cc1ccccn1)C2,4.507,-
O=C(Nc1cc(F)ccc1OCC1CCCO1)c1ccc(O)nc1 (stereo not given),7.383,13.33
CCC(C)Oc1cc(C(=O)Nc2nnc(C(C)C)[nH]2)ccn1 (stereo not given),-,-6.452

Some entries from above, unchanged:

| compound | A | B |
|---|---|---|
| `Cc1occc1C(=O)N1CCO[C@H]2[C@H](OCc3cccnc3)CC[C@@H]21` | - | 2.857 |
| `COc1ccc(C(C(=O)O)N(C)Cc2c(C)nn(C)c2C)c(C)c1` (stereo not given) | 19.33 | 9.574 |
| `CNC(=O)NC(=O)Cn1cc(-c2ccccc2)cn1` | -4.556 | 8.108 |